According to PMC12077085, “Structural elements of cyanobacterial co-factor-independent phosphoglycerate mutase that mediate regulation by PirC” (mBio, 2025):
Results are given in words; binding and its absence hold for the method and conditions named. Where a sequence is shown, tags or fusion partners need not be part of it.

Target: strep-tagged iPGAM (2,3-bisphosphoglycerate-independent phosphoglycerate mutase, Slr1945) of Synechocystis sp. PCC 6803, wild type (Synechocystis sp. PCC 6803) (UniProt P74507)
Test: mass photometry; Refeyn OneMP; strep-iPGAM and strep-PirC alone (iPGAM 10 nM) and mixed at an iPGAM-PirC ratio of 1:3; both purified

binding: no binding (tested: 10 nM)
B1: strep-tagged iPGAM (2,3-bisphosphoglycerate-independent phosphoglycerate mutase, Slr1945) of Synechocystis sp. PCC 6803, wild type (enzyme, UniProt P74507 1-532)
chain: MAEAPIAPVVLVILDGWGYRPDTRANAIAQANTPIMDSLIAAYPNTLVNTSGKDVGLPKGQMGNSEVGHLNLGAGRVVPQELVRISDAIEDGTFFDNQALIEVCQRVRDRRGKLHLIGLCSDGGVHSHIDHLLGLIDLAKLQGISQLCIHAITDGRDTPTNEGAHFVQQIQAHLEKIGLGRIVSVSGRYYALDRDRRWDRVEKAYRVMTEDGVGDGRSAAQVIKDYYASDITDEFIPPTRIGAGAIASGDGVIFYNFRPDRARQLCYALVNPSFDGFPRERIQPLDFVTFTQYDPALPVVVAFEPQNLNNILGEIISRQGMKQFRTAETEKYPHVTYFFNGGLEQPFAGEDRELIQSPMVSTYDKAPQMSAKAVTDAVCRAMEKGIYSLVVVNYANPDMVGHTGKLKEAIQAIETVDLNLGRLLASAAKVGGTVLITADHGNAEYMSDESGNPWTAHTTNPVPFILVEGEGRKIPGHGGEVKLREGGKLADIAPTILDILQLPVPAEMTGKTLIDQPLVEIKANRTPVNLSR
